# Reference: publication PMC3206029
# Chains of the proteins cited; added tags and fusions are not shown.
# UniProt Q14790: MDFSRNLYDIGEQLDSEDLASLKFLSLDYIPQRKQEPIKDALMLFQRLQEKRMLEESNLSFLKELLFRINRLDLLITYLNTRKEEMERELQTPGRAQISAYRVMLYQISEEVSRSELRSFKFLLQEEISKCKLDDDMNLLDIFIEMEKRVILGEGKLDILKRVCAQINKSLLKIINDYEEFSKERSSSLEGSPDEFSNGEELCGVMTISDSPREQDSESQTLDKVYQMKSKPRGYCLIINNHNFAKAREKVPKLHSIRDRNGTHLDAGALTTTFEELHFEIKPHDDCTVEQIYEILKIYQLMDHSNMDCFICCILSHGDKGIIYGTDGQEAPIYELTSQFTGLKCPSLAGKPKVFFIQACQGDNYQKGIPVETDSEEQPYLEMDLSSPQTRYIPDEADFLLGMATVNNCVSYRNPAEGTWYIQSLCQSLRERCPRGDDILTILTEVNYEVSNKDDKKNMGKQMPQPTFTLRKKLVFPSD
# UniProt P10415: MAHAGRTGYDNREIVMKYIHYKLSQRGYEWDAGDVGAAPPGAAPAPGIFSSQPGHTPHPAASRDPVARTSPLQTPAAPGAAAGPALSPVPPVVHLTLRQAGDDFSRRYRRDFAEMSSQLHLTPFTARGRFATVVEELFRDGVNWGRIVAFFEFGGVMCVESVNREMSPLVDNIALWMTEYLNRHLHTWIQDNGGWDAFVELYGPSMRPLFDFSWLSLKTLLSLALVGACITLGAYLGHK
# Results are given in words; binding and its absence hold for the method and conditions named. Binding seen in cells or lysates may run through a third protein. Some entries that bind do so weakly or less than the wild type.
# What was measured:
# [1] = target: caspase 8 (human (endogenous in MIP101, RKO, MiaPaCa and MCF-7 cells)) (UniProt Q14790); test: co-IP; resistant RKO/5FU, MIP/5FU and MiaPaca/CPT cells exposed to 100 ng/mL rSPARC before co-IP of Bcl2 and caspase 8 (membrane fraction in Fig. 5D); also rSPARC with anti-SPARC antibodies
# [2] = target: caspase 8 (human (endogenous in MIP101, RKO, MiaPaCa and MCF-7 cells)) (UniProt Q14790); test: condition: only cells incubated with antibodies blocking the N-terminus of caspase 8 (1.5–3 µg); co-IP; chemotherapy-resistant cells incubated with antibodies targeting the N-terminus (1.5–3 µg) or the C-terminus of caspase 8 before co-IP of Bcl2 and caspase 8
# [3] = target: caspase 8 (human (endogenous in MIP101, RKO, MiaPaCa and MCF-7 cells)) (UniProt Q14790); test: condition: only in chemosensitive MIP/ZEO and MIP/SP cells; co-IP; chemosensitive MIP/ZEO and MIP/SP cells; antibodies against caspase 8 and Bcl2
# [4] = target: caspase 8 (human (endogenous in MIP101, RKO, MiaPaCa and MCF-7 cells)) (UniProt Q14790); test: co-IP; chemotherapy-resistant cells (MIP/5FU, RKO/5FU, RKO/CPT, RKO/CIS, MiaPaca/CPT, MCF-7/CIS); antibodies against caspase 8 and Bcl2; Protein A:Protein G beads, PBS, 4°C
substance,measurement,setting,value
Bcl2 (from UniProt P10415 1-239),binding,[1],binds
same,binding,[2],no binding
same,binding,[3],no binding
same,binding,[4],binds
